No constants are given. Whether binding was seen depends on the method and setting.
How the values were obtained:
[1] = target: CTD(GbacOCP3) apoform (Gloeobacter kilaueensis JS1); test: SEC
[2] = target: CTD(GbacOCP3) holoform (Gloeobacter kilaueensis JS1); test: SEC

binding [1]: no binding | binding [2]: no binding
B1: Fluorescence Recovery Protein from Synechocystis sp. PCC 6803 (protein, UniProt P74103 1-109)
chain: MLQTAEAPWSQAETQSAHALFRKAYQRELDGLLATVQAQASQITQIDDLWKLHDFLSAKRHEIDGKYDDRQSVIIFVFAQLLKEGLVQAEELTFLAADKQSKIKALARL

Source: paper doi:10.1101/2023.08.20.554024
